Source: the supplement of paper PMC10849652
This is one part of the list.

By UniProt entry, the sequences of proteins in these tests, tags left out. Where a name states a change or a piece, a line headed by the entry shows the natural chain unless it says otherwise.
UniProt P08922: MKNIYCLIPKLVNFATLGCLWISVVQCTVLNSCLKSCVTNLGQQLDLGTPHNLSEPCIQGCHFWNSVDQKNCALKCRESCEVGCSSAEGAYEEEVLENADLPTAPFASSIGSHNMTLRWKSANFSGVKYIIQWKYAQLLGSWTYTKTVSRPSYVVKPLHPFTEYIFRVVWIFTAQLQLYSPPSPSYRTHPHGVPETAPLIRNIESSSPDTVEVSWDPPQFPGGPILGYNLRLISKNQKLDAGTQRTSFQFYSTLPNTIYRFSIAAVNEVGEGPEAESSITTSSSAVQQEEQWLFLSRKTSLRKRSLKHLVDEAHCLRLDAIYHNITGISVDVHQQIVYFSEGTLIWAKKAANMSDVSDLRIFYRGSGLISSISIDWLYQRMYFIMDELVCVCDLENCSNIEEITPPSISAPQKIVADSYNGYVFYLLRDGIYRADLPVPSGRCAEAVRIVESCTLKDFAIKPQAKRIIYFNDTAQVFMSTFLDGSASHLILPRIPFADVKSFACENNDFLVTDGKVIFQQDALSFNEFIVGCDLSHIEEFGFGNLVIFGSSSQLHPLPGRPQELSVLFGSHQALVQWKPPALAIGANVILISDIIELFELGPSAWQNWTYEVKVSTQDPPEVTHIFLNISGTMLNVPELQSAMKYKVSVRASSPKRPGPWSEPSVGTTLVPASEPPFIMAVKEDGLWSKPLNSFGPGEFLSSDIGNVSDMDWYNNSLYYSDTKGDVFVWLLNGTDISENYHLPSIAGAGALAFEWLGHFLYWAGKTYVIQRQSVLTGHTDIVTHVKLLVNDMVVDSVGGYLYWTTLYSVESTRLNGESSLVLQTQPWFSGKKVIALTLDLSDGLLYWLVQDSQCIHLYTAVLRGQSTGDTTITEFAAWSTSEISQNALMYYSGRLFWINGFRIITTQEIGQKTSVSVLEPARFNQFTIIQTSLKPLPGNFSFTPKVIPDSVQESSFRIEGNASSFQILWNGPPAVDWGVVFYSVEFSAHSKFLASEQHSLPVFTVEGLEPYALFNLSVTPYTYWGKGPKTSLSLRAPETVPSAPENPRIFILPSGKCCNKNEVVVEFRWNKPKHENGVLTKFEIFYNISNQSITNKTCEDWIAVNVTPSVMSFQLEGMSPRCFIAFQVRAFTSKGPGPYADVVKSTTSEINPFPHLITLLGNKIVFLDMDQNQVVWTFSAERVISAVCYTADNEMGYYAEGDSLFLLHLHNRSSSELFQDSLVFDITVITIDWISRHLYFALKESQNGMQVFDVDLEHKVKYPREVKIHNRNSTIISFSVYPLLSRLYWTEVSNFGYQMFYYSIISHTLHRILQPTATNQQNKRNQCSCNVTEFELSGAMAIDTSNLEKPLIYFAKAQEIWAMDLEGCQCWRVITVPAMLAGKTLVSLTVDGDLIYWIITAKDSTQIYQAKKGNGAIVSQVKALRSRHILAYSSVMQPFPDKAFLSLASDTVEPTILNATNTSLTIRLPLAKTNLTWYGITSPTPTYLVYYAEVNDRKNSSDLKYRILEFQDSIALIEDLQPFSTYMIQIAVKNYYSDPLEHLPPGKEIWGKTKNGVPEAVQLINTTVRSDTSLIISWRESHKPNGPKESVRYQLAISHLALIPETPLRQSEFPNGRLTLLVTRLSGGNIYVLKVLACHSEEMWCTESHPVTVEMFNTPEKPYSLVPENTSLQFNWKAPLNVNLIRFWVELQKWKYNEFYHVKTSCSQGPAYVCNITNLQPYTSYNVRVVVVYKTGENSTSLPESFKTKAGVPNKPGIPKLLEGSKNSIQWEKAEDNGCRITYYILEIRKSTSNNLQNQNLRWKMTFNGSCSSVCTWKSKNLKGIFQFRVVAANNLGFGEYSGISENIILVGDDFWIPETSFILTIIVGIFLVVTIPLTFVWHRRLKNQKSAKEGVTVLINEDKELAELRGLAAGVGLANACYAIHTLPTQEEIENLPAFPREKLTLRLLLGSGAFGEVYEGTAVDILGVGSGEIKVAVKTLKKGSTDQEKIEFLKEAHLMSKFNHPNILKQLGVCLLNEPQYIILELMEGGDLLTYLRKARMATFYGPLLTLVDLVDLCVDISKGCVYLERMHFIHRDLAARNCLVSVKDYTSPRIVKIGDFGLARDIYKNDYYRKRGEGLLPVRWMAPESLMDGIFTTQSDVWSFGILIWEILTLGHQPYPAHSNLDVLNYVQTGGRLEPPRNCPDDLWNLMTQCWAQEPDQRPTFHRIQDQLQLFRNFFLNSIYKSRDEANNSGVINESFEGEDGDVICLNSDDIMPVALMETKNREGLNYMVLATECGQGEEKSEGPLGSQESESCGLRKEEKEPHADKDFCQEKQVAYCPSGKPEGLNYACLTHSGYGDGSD
UniProt Q9H871: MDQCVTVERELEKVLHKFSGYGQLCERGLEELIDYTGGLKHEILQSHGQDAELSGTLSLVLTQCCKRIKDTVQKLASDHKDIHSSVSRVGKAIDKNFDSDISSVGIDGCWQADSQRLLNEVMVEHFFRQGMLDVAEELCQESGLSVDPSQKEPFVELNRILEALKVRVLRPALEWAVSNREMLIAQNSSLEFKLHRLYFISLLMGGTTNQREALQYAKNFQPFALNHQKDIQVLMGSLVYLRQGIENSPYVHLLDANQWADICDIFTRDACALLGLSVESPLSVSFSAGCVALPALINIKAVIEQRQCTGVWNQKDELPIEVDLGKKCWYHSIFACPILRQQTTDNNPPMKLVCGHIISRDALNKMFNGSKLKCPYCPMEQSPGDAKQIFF
UniProt Q8WVD5: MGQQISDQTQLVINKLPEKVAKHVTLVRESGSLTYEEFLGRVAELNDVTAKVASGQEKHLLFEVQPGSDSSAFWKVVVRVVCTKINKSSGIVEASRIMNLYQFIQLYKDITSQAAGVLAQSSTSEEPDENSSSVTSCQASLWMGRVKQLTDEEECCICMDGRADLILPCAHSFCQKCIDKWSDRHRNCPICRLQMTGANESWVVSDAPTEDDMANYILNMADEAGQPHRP
UniProt Q96EP0: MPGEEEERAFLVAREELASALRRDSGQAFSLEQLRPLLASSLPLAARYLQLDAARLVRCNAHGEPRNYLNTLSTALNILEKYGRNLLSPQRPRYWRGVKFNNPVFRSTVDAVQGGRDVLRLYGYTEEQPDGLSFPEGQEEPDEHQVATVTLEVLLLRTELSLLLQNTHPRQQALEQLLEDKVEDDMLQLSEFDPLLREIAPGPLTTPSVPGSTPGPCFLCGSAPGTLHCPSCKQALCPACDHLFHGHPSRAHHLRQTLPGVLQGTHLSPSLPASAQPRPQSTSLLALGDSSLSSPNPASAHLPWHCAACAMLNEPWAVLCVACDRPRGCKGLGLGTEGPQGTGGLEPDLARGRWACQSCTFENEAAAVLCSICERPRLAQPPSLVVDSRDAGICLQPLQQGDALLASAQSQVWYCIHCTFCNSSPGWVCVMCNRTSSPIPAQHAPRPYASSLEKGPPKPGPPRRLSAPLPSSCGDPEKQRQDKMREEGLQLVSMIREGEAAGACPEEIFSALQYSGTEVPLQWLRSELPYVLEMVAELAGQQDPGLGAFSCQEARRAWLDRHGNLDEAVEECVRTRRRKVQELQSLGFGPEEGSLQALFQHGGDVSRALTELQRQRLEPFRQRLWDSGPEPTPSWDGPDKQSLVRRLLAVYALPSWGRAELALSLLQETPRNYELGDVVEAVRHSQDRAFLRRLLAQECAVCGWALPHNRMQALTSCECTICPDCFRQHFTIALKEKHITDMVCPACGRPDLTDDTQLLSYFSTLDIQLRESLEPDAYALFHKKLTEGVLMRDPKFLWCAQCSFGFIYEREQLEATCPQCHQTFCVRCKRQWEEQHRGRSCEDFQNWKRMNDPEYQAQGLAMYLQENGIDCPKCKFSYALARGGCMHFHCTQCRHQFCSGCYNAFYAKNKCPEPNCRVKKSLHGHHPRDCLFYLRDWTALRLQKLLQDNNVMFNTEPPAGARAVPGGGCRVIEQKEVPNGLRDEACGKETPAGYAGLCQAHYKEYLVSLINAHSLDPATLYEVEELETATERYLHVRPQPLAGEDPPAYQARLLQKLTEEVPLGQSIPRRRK
UniProt O00584, whole entry, looked up: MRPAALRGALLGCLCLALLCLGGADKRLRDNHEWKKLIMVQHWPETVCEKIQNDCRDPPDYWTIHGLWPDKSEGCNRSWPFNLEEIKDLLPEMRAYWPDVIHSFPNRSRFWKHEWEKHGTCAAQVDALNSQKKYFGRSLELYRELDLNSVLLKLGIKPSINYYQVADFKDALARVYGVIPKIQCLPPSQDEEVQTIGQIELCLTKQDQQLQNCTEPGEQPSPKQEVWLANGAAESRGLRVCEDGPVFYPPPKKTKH
UniProt Q5EBL4: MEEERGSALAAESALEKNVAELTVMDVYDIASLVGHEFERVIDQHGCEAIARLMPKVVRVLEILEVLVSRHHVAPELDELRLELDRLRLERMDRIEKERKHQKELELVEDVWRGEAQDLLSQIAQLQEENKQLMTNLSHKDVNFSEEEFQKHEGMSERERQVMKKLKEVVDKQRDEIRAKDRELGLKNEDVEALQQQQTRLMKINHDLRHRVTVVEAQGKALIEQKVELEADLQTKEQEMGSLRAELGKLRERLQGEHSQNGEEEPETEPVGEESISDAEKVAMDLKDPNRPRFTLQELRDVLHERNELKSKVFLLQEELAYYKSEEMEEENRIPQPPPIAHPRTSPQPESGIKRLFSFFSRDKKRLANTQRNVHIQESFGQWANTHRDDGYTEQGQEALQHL
UniProt Q9P0P0: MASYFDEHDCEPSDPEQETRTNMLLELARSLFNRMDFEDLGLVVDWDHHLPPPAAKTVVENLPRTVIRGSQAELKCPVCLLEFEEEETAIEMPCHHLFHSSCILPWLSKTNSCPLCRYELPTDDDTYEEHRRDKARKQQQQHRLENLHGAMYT
UniProt Q96K19: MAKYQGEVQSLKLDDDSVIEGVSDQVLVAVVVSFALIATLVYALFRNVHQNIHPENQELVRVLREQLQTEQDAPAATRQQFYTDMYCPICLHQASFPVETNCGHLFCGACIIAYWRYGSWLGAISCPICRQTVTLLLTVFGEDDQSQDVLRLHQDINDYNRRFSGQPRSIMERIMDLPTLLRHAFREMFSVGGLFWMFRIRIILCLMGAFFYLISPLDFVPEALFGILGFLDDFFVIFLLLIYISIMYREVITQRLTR
UniProt Q9H9Y2: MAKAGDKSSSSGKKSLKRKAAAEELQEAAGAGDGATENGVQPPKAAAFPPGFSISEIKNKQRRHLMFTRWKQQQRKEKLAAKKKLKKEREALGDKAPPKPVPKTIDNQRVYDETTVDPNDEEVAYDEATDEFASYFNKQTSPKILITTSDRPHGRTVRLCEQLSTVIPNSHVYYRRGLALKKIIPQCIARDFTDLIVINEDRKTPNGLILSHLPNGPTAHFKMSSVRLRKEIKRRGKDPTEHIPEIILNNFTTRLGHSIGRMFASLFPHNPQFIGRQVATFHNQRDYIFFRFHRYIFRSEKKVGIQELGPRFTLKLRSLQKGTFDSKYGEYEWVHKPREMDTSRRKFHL
UniProt Q96DM3: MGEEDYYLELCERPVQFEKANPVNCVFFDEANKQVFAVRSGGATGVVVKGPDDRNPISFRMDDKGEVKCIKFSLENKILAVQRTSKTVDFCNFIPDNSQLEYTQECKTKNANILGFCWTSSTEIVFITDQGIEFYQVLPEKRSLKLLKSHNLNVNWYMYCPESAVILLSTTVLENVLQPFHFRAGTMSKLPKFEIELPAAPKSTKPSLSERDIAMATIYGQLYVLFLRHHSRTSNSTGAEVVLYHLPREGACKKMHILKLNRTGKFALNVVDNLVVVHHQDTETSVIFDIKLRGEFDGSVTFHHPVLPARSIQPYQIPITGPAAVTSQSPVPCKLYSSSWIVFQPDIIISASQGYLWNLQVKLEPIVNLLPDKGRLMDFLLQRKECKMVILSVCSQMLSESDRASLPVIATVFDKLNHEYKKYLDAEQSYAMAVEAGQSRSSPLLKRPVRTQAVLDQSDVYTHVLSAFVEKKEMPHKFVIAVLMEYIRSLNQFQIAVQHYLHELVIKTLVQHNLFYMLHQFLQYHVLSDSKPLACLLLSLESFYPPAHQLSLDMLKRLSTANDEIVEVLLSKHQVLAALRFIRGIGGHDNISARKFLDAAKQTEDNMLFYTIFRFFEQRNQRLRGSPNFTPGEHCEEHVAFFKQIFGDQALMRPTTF
UniProt Q969X0: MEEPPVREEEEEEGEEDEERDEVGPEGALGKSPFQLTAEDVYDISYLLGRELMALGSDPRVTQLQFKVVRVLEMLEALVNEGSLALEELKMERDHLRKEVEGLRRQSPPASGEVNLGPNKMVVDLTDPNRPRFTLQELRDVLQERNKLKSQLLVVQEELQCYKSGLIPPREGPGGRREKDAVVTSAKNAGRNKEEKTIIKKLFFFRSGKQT
UniProt Q9Y508: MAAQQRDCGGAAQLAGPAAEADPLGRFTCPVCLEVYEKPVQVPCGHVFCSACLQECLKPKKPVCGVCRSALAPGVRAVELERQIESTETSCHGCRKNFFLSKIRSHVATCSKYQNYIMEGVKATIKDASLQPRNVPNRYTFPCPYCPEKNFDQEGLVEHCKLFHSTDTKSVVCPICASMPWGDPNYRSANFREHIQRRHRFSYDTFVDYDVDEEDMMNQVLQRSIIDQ

How the values were obtained:
Experiment in all cases: log2 fold change, soluble protein after heating vs DMSO (PISA); higher = thermal stabilisation; K562 lysate, 10 uM; active = over 0.2 and 3.5 SD of the protein, either way, in both replicates (recomputed)
ibrutinib = compound: C=CC(=O)N1CCC[C@@H](n2nc(-c3ccc(Oc4ccccc4)cc3)c3c(N)ncnc32)C1 [ibrutinib]
Summary of the method: (§1)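 The values are log-two fold changes in thermal stability compared with solvent controls and come from duplicates. They were obtained by TMTpro 16plex LC-MS/MS, with channel sums equalised, on the supernatant after 21,000xg for 90 min. That supernatant came from crude K562 extract at 1 mg/mL protein treated with 10 μM compound for 30 min, heated for 3 min across 48°C-58°C, pooled and brought to 0.5% NP-40 at 4°C.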

[1] = compound: CC(=O)c1cnc2ccc(-c3cc(Cl)c(O)c(Cl)c3)nc2c1N[C@H]1CC[C@H](CN(C)C)CC1
Summary of the method: as §1

ralimetinib = compound: CC(C)(C)Cn1c(N)nc2ccc(-c3[nH]c(C(C)(C)C)nc3-c3ccc(F)cc3)nc21 [ralimetinib]
Summary of the method: as §1

[2] = compound: CC(C)(O)CC(=O)NCCn1ccc2ncnc(Nc3ccc(Oc4cccc(C(F)(F)F)c4)c(Cl)c3)c21
Summary of the method: as §1

[3] = compound: CC(C)C1=C2N=C(C=C(N2N=C1)NCC3=CC=CC=C3)NCCCCCCN
Summary of the method: as §1

[4] = compound: CC1=C(C(CC(=O)N1)C2=CC=C(C=C2)C(F)(F)F)C(=O)NC3=C(C=C4C(=C3)C=NN4)F
Summary of the method: as §1

[5] = compound: CC1=C(C2=C(C=C1)C(=O)C3=CC=CC=C3N2CCCN)C
Summary of the method: as §1

[6] = compound: CC1=C(C=C(C=C1)NC(=O)C2=CC(=CC=C2)C(C)(C)C#N)NC3=CC4=C(C=C3)N=CN(C4=O)C
Summary of the method: as §1

[7] = compound: CC1=C(C=C(C=C1)NC(=O)C2=CC(=CC=C2)N(C)C)NC(=O)C3=CC=C(C=C3)O
Summary of the method: as §1

[8] = compound: CC1=CC=C(C=C1)SC2=C3C=C(SC3=CN=C2)C(=O)N
Summary of the method: as §1

Measured: log2 fold change

RPL19 (UniProt P84098)
inactive: ibrutinib -0.022 | [1] 0.036 | ralimetinib 0.025 | [2] -0.025 | [3] 0.014 | [4] -0.01 | [5] -0.018 | [6] -0.055 | [7] 0.002 | [8] 0.012

ROS1 (UniProt P08922)
inactive: ibrutinib 0.161 | [1] 0.029 | ralimetinib 0.112 | [2] -0.062 | [4] 0.045 | [5] 0.015 | [6] -0.049 | [7] 0.04 | [8] 0.002

RMND5A (UniProt Q9H871)
inactive: ibrutinib 0.047 | [1] -0.035 | ralimetinib -0.013 | [2] 0.019 | [3] -0.038 | [4] -0.012 | [5] 0 | [6] 0.005 | [7] 0.005 | [8] 0.003

RNF141 (UniProt Q8WVD5)
inactive: ibrutinib 0.131 | [1] -0.052 | ralimetinib 0.037 | [2] 0.004 | [3] 0 | [4] 0.044 | [5] 0 | [6] 0.019 | [7] -0.005 | [8] -0.051

RPL18A (UniProt Q02543)
inactive: ibrutinib -0.02 | [1] 0.002 | ralimetinib -0.018 | [2] -0.017 | [3] 0.034 | [4] 0.005 | [5] -0.012 | [6] -0.054 | [7] -0.015 | [8] 0.012

RPL10A (UniProt P62906)
inactive: ibrutinib -0.028 | [1] -0.003 | ralimetinib -0.015 | [2] 0.009 | [3] 0.017 | [4] -0.013 | [5] -0.017 | [6] 0 | [7] 0.004 | [8] 0.03

RNF31 (UniProt Q96EP0)
inactive: ibrutinib -0.001 | [1] -0.067 | ralimetinib 0.028 | [2] 0.001 | [3] -0.013 | [4] -0.028 | [5] -0.036 | [6] -0.036 | [7] 0.04 | [8] 0.006

RICTOR isoform 3 (UniProt Q6R327)
inactive: ibrutinib 0.272 | [1] -0.008 | ralimetinib 0 | [2] -0.046 | [3] -0.138 | [4] 0.028 | [5] 0.071 | [6] 0.022 | [7] 0.039 | [8] -0.054

RNASET2 (UniProt O00584)
inactive: ibrutinib 0.035 | [1] -0.021 | ralimetinib -0.012 | [2] -0.015 | [3] -0.014 | [4] 0.016 | [5] -0.01 | [6] -0.01 | [7] 0.015 | [8] -0.003

RMI1 (UniProt Q9H9A7)
inactive: ibrutinib -0.128 | [1] -0.059 | ralimetinib 0.106 | [2] -0.096 | [3] -0.011 | [4] 0.038 | [5] -0.009 | [6] -0.023 | [7] 0.049 | [8] -0.053

RILPL1 (UniProt Q5EBL4)
inactive: ibrutinib -0.018 | [1] -0.006 | ralimetinib -0.001 | [2] -0.018 | [3] -0.033 | [4] 0.058 | [5] -0.032 | [6] 0.006 | [7] -0.005 | [8] -0.012

RMDN3 (UniProt Q96TC7)
inactive: ibrutinib 0.015 | [1] -0.012 | ralimetinib -0.009 | [2] 0.007 | [3] 0.007 | [4] 0.013 | [5] -0.001 | [6] 0.02 | [7] 0.011 | [8] 0.011

RPL26L1 (UniProt Q9UNX3)
inactive: ibrutinib -0.01 | [1] 0.029 | ralimetinib -0.024 | [2] 0.031 | [3] 0.005 | [4] -0.012 | [5] -0.039 | [6] -0.038 | [7] -0.018 | [8] 0.038

RNF181 (UniProt Q9P0P0)
inactive: ibrutinib 0.043 | [1] -0.024 | ralimetinib -0.001 | [2] -0.006 | [3] -0.005 | [4] -0.056 | [5] 0.008 | [6] 0.03 | [7] 0 | [8] 0.013

RPL36 (UniProt Q9Y3U8)
inactive: ibrutinib -0.003 | [1] -0.002 | ralimetinib 0.004 | [2] -0.025 | [3] -0.043 | [4] -0.02 | [5] -0.016 | [6] -0.004 | [7] -0.001 | [8] 0.003

RPF2 (UniProt Q9H7B2)
inactive: ibrutinib 0.028 | [1] 0.004 | ralimetinib -0.006 | [2] -0.028 | [3] -0.043 | [4] 0.072 | [5] -0.014 | [6] 0.053 | [7] 0.041 | [8] 0.005

RHOC (UniProt P08134)
inactive: ibrutinib 0.016 | [1] 0.001 | ralimetinib 0.045 | [2] 0.094 | [3] -0.027 | [4] -0.066 | [5] 0.064 | [6] 0.009 | [7] -0.028 | [8] 0.044

RNF170 (UniProt Q96K19)
inactive: ibrutinib -0.006 | [1] 0.107 | [3] 0.084 | [4] 0.302 | [5] -0.035 | [8] -0.036

Pulled one by one from above, 2 records:
RNASET2 (UniProt O00584)
inactive: ibrutinib 0.035 | [1] -0.021 | ralimetinib -0.012 | [2] -0.015 | [3] -0.014 | [4] 0.016 | [5] -0.01 | [6] -0.01 | [7] 0.015 | [8] -0.003

ROS1 (UniProt P08922)
inactive: ibrutinib 0.161 | [1] 0.029 | ralimetinib 0.112 | [2] -0.062 | [4] 0.045 | [5] 0.015 | [6] -0.049 | [7] 0.04 | [8] 0.002

More entries.

RPF1 (UniProt Q9H9Y2)
inactive: ibrutinib 0.114 | [1] 0.053 | ralimetinib 0.083 | [2] -0.074 | [6] 0.044 | [7] 0.033 | [8] -0.103

RIF1 (UniProt Q5UIP0)
inactive: ibrutinib 0.002 | [1] 0.019 | ralimetinib -0.001 | [2] -0.065 | [3] -0.009 | [4] 0.076 | [5] -0.011 | [6] 0 | [7] 0.038 | [8] 0.012

RMC1 (UniProt Q96DM3)
inactive: ibrutinib -0.004 | [1] 0.018 | ralimetinib 0.03 | [2] -0.024 | [3] -0.001 | [4] -0.017 | [5] -0.018 | [6] 0.009 | [7] 0.005 | [8] 0.027

RPIA (UniProt P49247)
inactive: ibrutinib 0.008 | [1] 0.034 | ralimetinib 0.015 | [2] -0.023 | [3] -0.015 | [4] 0 | [5] -0.023 | [6] 0.012 | [7] -0.021 | [8] -0.006

RIPK2 (UniProt O43353)
inactive: ibrutinib 0.182 | [1] -0.045 | ralimetinib 0.084 | [2] -0.011 | [3] 0.007 | [4] 0.024 | [5] -0.074 | [6] 0.071 | [7] 0.022 | [8] 0.035

RILPL2 (UniProt Q969X0)
inactive: ibrutinib 0.053 | [1] -0.012 | ralimetinib 0.026 | [2] 0.039 | [3] -0.111 | [4] 0.04 | [6] -0.085 | [7] 0.01 | [8] 0.073

RNPEP (UniProt Q9H4A4)
inactive: ibrutinib 0.002 | [1] 0.001 | ralimetinib -0.01 | [2] -0.002 | [3] -0.002 | [4] 0.015 | [5] 0.022 | [6] -0.006 | [7] -0.004 | [8] -0.003

RNF114 (UniProt Q9Y508)
inactive: ibrutinib 0.012 | [1] -0.01 | ralimetinib 0 | [2] 0.001 | [3] -0.042 | [4] -0.024 | [5] 0.019 | [6] 0.038 | [7] -0.045 | [8] -0.019

RPL24 (UniProt P83731)
inactive: ibrutinib -0.056 | [1] -0.008 | ralimetinib -0.01 | [2] -0.02 | [3] 0.007 | [4] -0.01 | [5] -0.032 | [6] 0.005 | [7] 0.014 | [8] 0.016

RINL (UniProt Q6ZS11)
inactive: ibrutinib -0.041 | [1] 0.074 | ralimetinib 0.094 | [2] -0.063 | [3] -0.052 | [4] -0.057 | [5] 0.05 | [7] 0.017 | [8] 0.021
